## Percent effect of library compounds

Data taken from ChEMBL document CHEMBL3988442, “University of Dundee, Small-Polar-MMV Screening Library” (2021).

Values are the deposited “Percent Effect”, in %.
The record does not define 0% and 100%; most values in the screen are far below 50% and negative numbers occur (in some assays of this library far below -100).
This is an unselected part of the compounds tested.
Two or more numbers in one place are separate tests of the same structure; such repeats can differ widely.

Mtb cholesterol medium: 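Whole-cell growth test on Mycobacterium tuberculosis, read after 4 days in a medium based on cholesterol and the lipid DPPC; the read-out is not stated. Compounds at 50 µM. Higher reads as more growth inhibition (inferred: compounds with an IC50 in retests scored well above the rest). Of about 69,000 compounds tested this way, about 370 (0.54%) reached 50% or more in at least one test.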
Mtb glucose medium: 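Phenotypic screen: M. tuberculosis growth, glucose 7H9 medium, 3 days; the read-out is not stated. Tested at 50 µM. Higher reads as more growth inhibition (inferred: compounds with an IC50 in retests scored well above the rest). Size under these conditions: about 69,000 compounds, about 760 of them at 50% or above in at least one test.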

Result for CCC(C)[C@H](NC(=O)c1cc(F)ccc1-n1cnnn1)C(=O)OC (stereo partly shown) was Mtb cholesterol medium: -12.59%; Mtb glucose medium: 10.97%.
Result for Cc1ccc(N2CCCC(N(C)Cc3cc(C)on3)C2)nn1 (stereo not shown) was Mtb cholesterol medium: 9.11%; Mtb glucose medium: -6.933%.
Result for CCOc1ccc(NC(=O)N(CCC#N)Cc2ccccn2)cc1F was Mtb cholesterol medium: -9.694%; Mtb glucose medium: -0.5221% & 14.2%.
Result for [H][C@@]12CCN(Cc3cnn(C)c3)C[C@@]1([H])O[C@H](c1nc(C)cs1)C2 was Mtb cholesterol medium: -12.33%; Mtb glucose medium: -0.7474%.
Result for O=C(CN1C(=O)CCC1=O)N1CCC(CSCc2ccco2)CC1 was Mtb cholesterol medium: 15.45%; Mtb glucose medium: -9.685%.
Result for O=C(O)C(F)(F)F.O=C(O)C(F)(F)F.c1ccc(NCc2cnc3n2CCN(CC2CCOC2)CC3)nc1 (stereo not shown) was Mtb cholesterol medium: -17.68%; Mtb glucose medium: 6.642%.
Result for O=C(CCN1CCC(C(=O)c2cc(F)ccc2F)CC1)NC1CC1 was Mtb cholesterol medium: -5.401%; Mtb glucose medium: 2.04% & -7.984%.
Result for O=C(COCc1nc(-c2ccncc2)no1)N1CCOCC1 was Mtb cholesterol medium: 2.091%; Mtb glucose medium: 21.86%.
Result for O=C(Cc1cccc(F)c1)N1CCc2ncnc(NC3CCC3)c2CC1 was Mtb cholesterol medium: -4.962%; Mtb glucose medium: 24.42%.
Result for CC(C)(C)c1cc(C[C@H]2CNCC[C@H]2CC(=O)NCc2cccs2)no1 was Mtb cholesterol medium: -0.7185%; Mtb glucose medium: -3.465% & 11.22%.
Result for O=C(COc1ccccc1F)NCCC(O)c1ccoc1 (stereo not shown) was Mtb cholesterol medium: 12.44%; Mtb glucose medium: 31.15%.
Result for CC(C(=O)Nc1ccc(N2CCCCC2)nc1)n1cncn1 (stereo not shown) was Mtb cholesterol medium: -28.5%; Mtb glucose medium: -9.465% & 0.5666%.
Result for COc1ccc(C2CCCCCN2Cc2cn(C)nc2C)cc1 (stereo not shown) was Mtb cholesterol medium: 10.08%; Mtb glucose medium: 39.84%.
Result for O=C(CC(F)(F)F)N1CCc2onc(Cn3cccn3)c2C1 was Mtb cholesterol medium: -1.743%; Mtb glucose medium: -23.37%.
Result for Cc1cnn(C(C)C(=O)NCC2CCN(c3cnn(C)c(=O)c3)CC2)c1 (stereo not shown) was Mtb cholesterol medium: -8.62% & -7.753%; Mtb glucose medium: 1.389%.
Result for CC(NCc1ccc(F)cc1)c1ccc(S(C)(=O)=O)cc1 (stereo not shown) was Mtb cholesterol medium: -11.15%; Mtb glucose medium: 9.255%.
Result for O=C(CNC(=O)Nc1cccc(-c2nccs2)c1)NCCO was Mtb cholesterol medium: -4.265%; Mtb glucose medium: -10.47%.
Result for CC(=O)N1CCN(C(=O)CN(C)c2ccc(Cl)cn2)CC1 was Mtb cholesterol medium: 4.909%; Mtb glucose medium: 1.116% & -8.44%.
Result for Cc1c[nH]nc1C1CCCN(C(=O)c2c(C)noc2C)C1 (stereo not shown) was Mtb cholesterol medium: -5.699%; Mtb glucose medium: 19.3%.
Result for CCc1nnc(Nc2cccc(C3CCN(C(=O)CNC)CC3)n2)s1 was Mtb cholesterol medium: -2.285%; Mtb glucose medium: -6.751%.
Result for COc1ccc(F)c(CN2CCCC(O)(CNCc3ccon3)C2=O)c1 (stereo not shown) was Mtb cholesterol medium: -34.71%; Mtb glucose medium: -54.03%.
Result for CS(=O)(=O)NC[C@H]1Cn2c(-c3ccc(Cl)cc3)cnc2CO1 was Mtb cholesterol medium: -21.19%; Mtb glucose medium: -12.11% & 52.47%.
Result for Cn1nc(COc2cccnc2)c2c1CCN(c1cnccn1)C2.O=CO.O=CO was Mtb cholesterol medium: 8.383%; Mtb glucose medium: 8.044%.
Result for CN1CCN(Cc2ccccc2CNC(=O)c2cc(Cl)ccc2F)CC1 was Mtb cholesterol medium: 9.057%; Mtb glucose medium: 12.09% & -11.71%.
Result for Cc1cc(C)cc(OCCNC(=O)C(C)Sc2nncn2C)c1 (stereo not shown) was Mtb cholesterol medium: -10.14%; Mtb glucose medium: 3.75%.
Result for [H][C@]12CCN(Cc3cc(Cn4cncn4)c(C)cc3C)C[C@]([H])(CC1)N2 was Mtb cholesterol medium: 7.758% & -2.756%; Mtb glucose medium: -5.929%.
Result for COc1cccc2cc(CNCc3ccnc(N(C)C)c3)oc12 was Mtb cholesterol medium: -0.3526%; Mtb glucose medium: -20.9% & 7.733%.